These results are taken from article PMC8357417, “CTP and parS coordinate ParB partition complex dynamics and ParA-ATPase activation for ParABS-mediated DNA partitioning” (eLife, 2021).

Results are given in words; binding and its absence hold for the method and conditions named.

The target in this test is ParBF^1-42-mCherry (F-plasmid (E. coli)). Briefly: SEC; Superose 6 3.2/300 column with protein standards; both purified. A general note: Size exclusion chromatography separates by hydrodynamic size, large species first.

B1: ParBF^1-42-mCherry (domain or fragment, F-plasmid (E. coli))
chain: MKRAPVIPKHTLNTQPVEDTSLSTPAAPMVDSLIARVGVMAR
notes: ParBF^1-42 fused to the N-terminus of mCherry through an SGGG linker; His6 at the C-terminus of the fusion; Monomer by gel filtration; also called monomeric ParBF^1-42-mCherry; source: E. coli BL21 DE3 AI, purified (HisTrap after lysis in 6 M guanidinium chloride, S200 size exclusion); not shown: mCherry, C-terminal, kept
For the molecule B1, the binding entry is reported as “no binding”.
